Measurements published in doi:10.1101/2021.09.17.460294.
No constants are given. Whether binding was seen depends on the method and setting. Binding seen in cells or lysates may run through a third protein. Some results given as binding are weak or reduced against the parent protein; the word gives no strength. Tags and fused reporters may be left off the sequences shown.

Chains of the proteins cited; added tags and fusions are not shown.
UniProt Q13490: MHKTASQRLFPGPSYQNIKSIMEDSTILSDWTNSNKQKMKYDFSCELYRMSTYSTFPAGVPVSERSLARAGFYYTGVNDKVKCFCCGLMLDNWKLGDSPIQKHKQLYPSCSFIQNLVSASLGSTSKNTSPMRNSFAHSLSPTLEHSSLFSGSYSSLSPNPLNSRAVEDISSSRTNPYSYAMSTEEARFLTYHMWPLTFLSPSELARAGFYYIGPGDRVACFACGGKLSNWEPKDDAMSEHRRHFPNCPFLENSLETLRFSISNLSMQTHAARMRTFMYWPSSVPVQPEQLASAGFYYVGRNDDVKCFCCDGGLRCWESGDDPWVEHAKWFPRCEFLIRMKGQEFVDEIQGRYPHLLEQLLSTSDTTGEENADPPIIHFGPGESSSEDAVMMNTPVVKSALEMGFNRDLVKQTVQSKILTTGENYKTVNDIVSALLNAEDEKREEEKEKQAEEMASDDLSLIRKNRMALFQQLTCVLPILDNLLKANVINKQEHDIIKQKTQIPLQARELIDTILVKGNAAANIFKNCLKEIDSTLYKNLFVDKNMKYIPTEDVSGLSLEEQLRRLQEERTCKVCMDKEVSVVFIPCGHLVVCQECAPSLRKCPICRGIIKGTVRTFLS

Target: GST-cIAP1 (UniProt Q13490)
Assay: pull-down

binding: binds
B1: Venus-flag (VF)-tagged LKB1 kinase domain C-lobe truncation (CL, 132-347aa) (domain or fragment, UniProt Q15831 132-347)
chain: CVCGMQEMLDSVPEKRFPVCQAHGYFCQLIDGLEYLHSQGIVHKDIKPGNLLLTTGGTLKISDLGVAEALHPFAADDTCRTSQGSPAFQPPEIANGLDTFSGFKVDIWSAGVTLYNITTGLYPFEGDNIYKLFENIGKGSYAIPGDCGPPLSDLLKGMLEYEPAKRFSIRQIRQHSWFRKKHPPAEAPVPIPPSPDTKDRWRSMTVVPYLEDLHGA
